Laboratory results from US20170044238A1.
No constants are given. Whether binding was seen depends on the method and setting. Some results given as binding are weak or reduced against the parent protein; the word gives no strength.

Columns and labels:
human lysozyme (human) [1] = target: T1, human lysozyme (human) (UniProt P61626); experiment: SPR, human lysozyme over immobilized VL (FIG. 15)
T1 sequence (looked up): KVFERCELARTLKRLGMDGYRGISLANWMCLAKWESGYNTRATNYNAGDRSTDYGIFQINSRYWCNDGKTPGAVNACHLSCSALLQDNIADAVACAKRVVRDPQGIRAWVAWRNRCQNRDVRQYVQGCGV

human lysozyme (human) [2] = target: T1, human lysozyme (human); experiment: phage ELISA, phage-displayed VL on immobilized human lysozyme
human lysozyme (human) [3] = target: T1, human lysozyme (human); experiment: SPR (BIACORE 3000), human lysozyme injected over the immobilized VL
human lysozyme (human) [4] = target: T1, human lysozyme (human); experiment: SPR, human lysozyme over immobilized VL

Measured: binding

B1: HVLHLYS (antibody, V domains shown, not shown: small tags and cut ends)
V domain: DIQMTQSPSSLSASVGDRVTITCQASQSIYSKLYWYQQKPGKAPKLLCFPASLLWSGVPSRFSCSGSGTDFTLTISNLQPEDFATYYCLQNAADPHRTFGHGTKVRL
binds: all assays above
